Test results taken from publication PMC7819943, “Rice protein-binding microarrays: a tool to detect cis-acting elements near promoter regions in rice”.
The list shows a part of the results.

The sequences below were run against T1, OsSMF1 (Oryza sativa, UniProt Q6ZLB0 1-436) (assay: protein-binding microarray (RPBM); PBS, 2% BSA, 51.3 ng/ul salmon testes DNA, 50 uM zinc acetate, 200 nM TF, 25 C, 1 h; high values mean tight binding). Settings: protein: recombinant; tags: N-terminal polyhistidine and DsRed monomer fusion (pET32a); chain copies: 2; label: CyDye5-dUTP incorporated in the synthesized complementary strand; 3' TTTTT single-stranded linker to array surface; dsDNA, one strand shown.
T1 sequence: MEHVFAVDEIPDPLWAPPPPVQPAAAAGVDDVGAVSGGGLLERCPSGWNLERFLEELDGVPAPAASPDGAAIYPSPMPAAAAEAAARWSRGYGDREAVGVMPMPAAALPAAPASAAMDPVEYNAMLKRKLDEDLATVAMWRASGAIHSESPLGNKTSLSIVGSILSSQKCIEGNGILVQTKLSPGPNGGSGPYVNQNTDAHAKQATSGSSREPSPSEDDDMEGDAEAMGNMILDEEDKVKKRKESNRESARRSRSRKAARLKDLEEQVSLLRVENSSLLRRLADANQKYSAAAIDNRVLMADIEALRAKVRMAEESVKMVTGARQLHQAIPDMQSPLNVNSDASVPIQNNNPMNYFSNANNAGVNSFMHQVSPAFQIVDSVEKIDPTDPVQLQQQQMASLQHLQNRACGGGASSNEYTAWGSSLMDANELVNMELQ
How it was run: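 Ni–NTA purification followed expression in E. coli BL21-CodonPlus of transcription factors fused N-terminally to a polyhistidine tag and DsRed. At 200 nM in PBS with 2% BSA, salmon testes DNA and 50 µM zinc acetate, the protein was incubated for 1 h at 25 °C with a custom Agilent array that had been primer-extended with Cy5-dUTP and blocked with 2% BSA. After washing, the array was read on an Axon 4000B scanner. The binding signal is per-feature fluorescence intensity in arbitrary units.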

Sequence	binding signal
TCTGCCACACATCACTGAACCAGCACATGGATCACATTAACGGAGTCACCTAGTGCAG	3430 fluorescence intensity (a.u.)
CGCTGCCGCCACCATCCACTCACCACCGACACCGTTCGTGCGGAGTCACCTAGTGCAG	3970 fluorescence intensity (a.u.)
TGTTCAACAAGGGCAAGTGTGCACGCGTGTATATAAGCGTCGGAGTCACCTAGTGCAG	3480 fluorescence intensity (a.u.)
TCAAACGTTATACGAAAAGTCGATGACGTTATATATTTTGCGGAGTCACCTAGTGCAG	5800 fluorescence intensity (a.u.)
CTATCCTGGTGTTATTTGCTAATCCCGATGCGTCACTGCACGGAGTCACCTAGTGCAG	4040 fluorescence intensity (a.u.)
CGATCGAACTCCATTCGTCCAGATCACCTCATGCATAACACGGAGTCACCTAGTGCAG	4770 fluorescence intensity (a.u.)
CCCAACCACCACCCCGAAGCGAAGCCGCGTGGAGGTGGAGCGGAGTCACCTAGTGCAG	3210 fluorescence intensity (a.u.)
AGGATTAACCATGTGACACATCCAGTGAGTCCCACGATGTCGGAGTCACCTAGTGCAG	3530 fluorescence intensity (a.u.)
TGGCTCCGCCTGCTCGCCGCCGGCGCCGACGCCTCCGTCGCGGAGTCACCTAGTGCAG	4480 fluorescence intensity (a.u.)
TCTGTTGGAAAGTCACCCTGTTACCTGTCATTGTTGTATTCGGAGTCACCTAGTGCAG	3880 fluorescence intensity (a.u.)
TGTCTTGTTGCCACTGCCGCTGGTGATAGACTCTACCATACGGAGTCACCTAGTGCAG	3260 fluorescence intensity (a.u.)
AATTTAACTCTTTCCCGCGTGGATGGCCGCATATATATGCCGGAGTCACCTAGTGCAG	3460 fluorescence intensity (a.u.)
TGTCCAAATGACATGACTCACTTGGATCCTAATAGGACATCGGAGTCACCTAGTGCAG	8450 fluorescence intensity (a.u.)
AAGCTTTGCATTTGGGCGCTGGGCATGTCAGCGTCCGGTTCGGAGTCACCTAGTGCAG	4440 fluorescence intensity (a.u.)
CCCTCGCTGTCACCTCCCCGGTCCCATCTTTGGCCGCCGTCGGAGTCACCTAGTGCAG	3560 fluorescence intensity (a.u.)
CACAGCGAGCAATAACAACAATACGACAGGAGGGCAAAGGCGGAGTCACCTAGTGCAG	5870 fluorescence intensity (a.u.)
ATTTCATCCAGTCGTAGGGCATGGATGACGTAGGGCATGCCGGAGTCACCTAGTGCAG	6250 fluorescence intensity (a.u.)
TCACTGCTCTGTGCGTATAACATATGACAACCACCCTTCCCGGAGTCACCTAGTGCAG	3220 fluorescence intensity (a.u.)
GTAAACGCATGCCTTTTCGCAAATTTGTAAAACGAAACGACGGAGTCACCTAGTGCAG	31500 fluorescence intensity (a.u.)
CACGTATGAAGCACTTTGCTGATATGAATCGTAGTGAACGCGGAGTCACCTAGTGCAG	3360 fluorescence intensity (a.u.)
TCCGCCTCCGCCTCCACCTCCACCTCCACCTCCGCCTCCACGGAGTCACCTAGTGCAG	4210 fluorescence intensity (a.u.)

Sequence	binding signal
CGCGGGACCGGGACCCGGCGTGCCACGTGGCAACCACTCGCGGAGTCACCTAGTGCAG	19300 fluorescence intensity (a.u.)
GATAGACTAATTGGTAAACACACATCAGAATATCAGATATCGGAGTCACCTAGTGCAG	3200 fluorescence intensity (a.u.)
GCCCAAAGAAAGAAGGAGGTGGACACGTGGGAGATCTGCGCGGAGTCACCTAGTGCAG	11200 fluorescence intensity (a.u.)
TAGGGTGTGACATGCACCTCCTATGTCTATTACTCTTTGCCGGAGTCACCTAGTGCAG	4030 fluorescence intensity (a.u.)
TGATGCCACGTGCAGTGCAGGTGGCCTTTGGGAGCGGTGACGGAGTCACCTAGTGCAG	4730 fluorescence intensity (a.u.)
GGCGGAAGGCGAACTTGGCGGGCGACGTGGAAGATGGGGCCGGAGTCACCTAGTGCAG	4220 fluorescence intensity (a.u.)
CCCCGAACACGCAGCCTCGCCACGCCACGCGCCCACGCTGCGGAGTCACCTAGTGCAG	6940 fluorescence intensity (a.u.)
CCTCTTCCTTCCTCCTCGCTTCGTCACCCTCCGCCCTCCTCGGAGTCACCTAGTGCAG	4240 fluorescence intensity (a.u.)
TCTGCTAGCTAGGTTCCACCAGTCAGTTTAGTATGTGACTCGGAGTCACCTAGTGCAG	3400 fluorescence intensity (a.u.)
TTATCTCCAATTTAAGCAACCAGAGGAATATATATGCTTGCGGAGTCACCTAGTGCAG	53500 fluorescence intensity (a.u.)
AGCTTTAGTATATGCATGTCACAGGATGACACTGCGTGCACGGAGTCACCTAGTGCAG	3450 fluorescence intensity (a.u.)
CAAAATCACCTACTCCCCTGGTTCTACAATTTCTTACAGTCGGAGTCACCTAGTGCAG	11400 fluorescence intensity (a.u.)
GACTTTACTCTATCTTCATTTCCGCACAACGTTGACTGGGCGGAGTCACCTAGTGCAG	3590 fluorescence intensity (a.u.)
AGCCACGGGCGAGCGGGAGGTGGCACGTCGACAGGCGGCGCGGAGTCACCTAGTGCAG	5040 fluorescence intensity (a.u.)
CGGCCCATGCCCGATCCATATCCAGACCCAATACGAAGTTCGGAGTCACCTAGTGCAG	12500 fluorescence intensity (a.u.)
TGTTCGAACTGACGTGGTAGTACTACGTCGTCGCGGCCTTCGGAGTCACCTAGTGCAG	11800 fluorescence intensity (a.u.)
TGTTTAATAATAAATTTAGTAACATCAATTTTACATGATTCGGAGTCACCTAGTGCAG	46100 fluorescence intensity (a.u.)
GCACTTCCGGTATCTACAGCGTCGACACCTATTTGCTGTTCGGAGTCACCTAGTGCAG	4780 fluorescence intensity (a.u.)
GCAACTTATCATGATCGTGACCGCAAAACAGCGGCGAGTTCGGAGTCACCTAGTGCAG	3150 fluorescence intensity (a.u.)
CGCATCATCCGCCCGTACACGTGTCCTGCATCGACGGCGCCGGAGTCACCTAGTGCAG	7430 fluorescence intensity (a.u.)
CTTACCATGTAGAAGGTGATACTTGCGAGGTATCGGACGACGGAGTCACCTAGTGCAG	24600 fluorescence intensity (a.u.)

As entered above:
In binding signal, TAGGGTGTGACATGCACCTCCTATGTCTATTACTCTTTGCCGGAGTCACCTAGTGCAG is listed with 4030 fluorescence intensity (a.u.)
In binding signal, CCCCGAACACGCAGCCTCGCCACGCCACGCGCCCACGCTGCGGAGTCACCTAGTGCAG is listed with 6940 fluorescence intensity (a.u.)
In binding signal, AGCCACGGGCGAGCGGGAGGTGGCACGTCGACAGGCGGCGCGGAGTCACCTAGTGCAG is listed with 5040 fluorescence intensity (a.u.)
In binding signal, CAAAATCACCTACTCCCCTGGTTCTACAATTTCTTACAGTCGGAGTCACCTAGTGCAG is listed with 11400 fluorescence intensity (a.u.)
In binding signal, GACTTTACTCTATCTTCATTTCCGCACAACGTTGACTGGGCGGAGTCACCTAGTGCAG is listed with 3590 fluorescence intensity (a.u.)
In binding signal, GCCCAAAGAAAGAAGGAGGTGGACACGTGGGAGATCTGCGCGGAGTCACCTAGTGCAG is listed with 11200 fluorescence intensity (a.u.)

Continued.

Sequence	binding signal
CTACGACCACGTCCCCGGCCGCAGCCTCTTCCACCTCCTCCGGAGTCACCTAGTGCAG	3870 fluorescence intensity (a.u.)
GATTTATTTTATCATTACGTGTACTTAAAAGCATGGCTTACGGAGTCACCTAGTGCAG	6750 fluorescence intensity (a.u.)
GTGTGAACTAAACACAGCCCAATTGTGACAAGTATCACGGCGGAGTCACCTAGTGCAG	3420 fluorescence intensity (a.u.)
CGGAAGTCGTCTTCTCCTATCACCCTGGGAATGACTCAATCGGAGTCACCTAGTGCAG	4250 fluorescence intensity (a.u.)
AATGCGTGGCTTTACCTGACGCGTGCGTGGCTTCCGTGCACGGAGTCACCTAGTGCAG	12200 fluorescence intensity (a.u.)
GCGCTCGCCGTCGTGGCGCCGGCCGCCGTGGCCTCACGCTCGGAGTCACCTAGTGCAG	4360 fluorescence intensity (a.u.)
AAGCGAGCGATGAGTCATATCATTATCTTTCTAGCCTGCTCGGAGTCACCTAGTGCAG	7530 fluorescence intensity (a.u.)
CAAAGCTGGGACCTGGGTGAGATCTGCGAAGTCAGCAGAGCGGAGTCACCTAGTGCAG	8070 fluorescence intensity (a.u.)
CGGTGGGTCGTCCTCAGAAGGACACGTGTCCCCACCCCTCCGGAGTCACCTAGTGCAG	9760 fluorescence intensity (a.u.)
GGGAGTATATATTTCCACGCTGCCCTTTAGTATACACCTCCGGAGTCACCTAGTGCAG	3510 fluorescence intensity (a.u.)
ATATTTTGGGCCTGTTTGGCACAGCTCCAGCTCCACCCCTCGGAGTCACCTAGTGCAG	3560 fluorescence intensity (a.u.)
CAATCCTCCACGTCGCCGCGCGGCTCGCGATCCGAACGCCCGGAGTCACCTAGTGCAG	5740 fluorescence intensity (a.u.)
CTCGCTCGCCTGCCTCCCCACCTCACCAGCTCACCCCACGCGGAGTCACCTAGTGCAG	4810 fluorescence intensity (a.u.)
TGTCATATAAATGCCACGTCAAACACCACGTTGGACGATGCGGAGTCACCTAGTGCAG	19700 fluorescence intensity (a.u.)
GCCGCGCGCACGCGACGGGTTTGGGTCGAAACGGACGTCGCGGAGTCACCTAGTGCAG	4190 fluorescence intensity (a.u.)
CGTCTGCTTTTCAAAATATTAAACTTCTCGAACAAATTATCGGAGTCACCTAGTGCAG	17700 fluorescence intensity (a.u.)
AAGTGTGTCCCTGTATTACTTACACGTGTGGCGTGTGTAACGGAGTCACCTAGTGCAG	5770 fluorescence intensity (a.u.)
TCCACTAACGATTAATATCTAGGTTTTATTTTAGAGTGTGCGGAGTCACCTAGTGCAG	36600 fluorescence intensity (a.u.)
ACAATGTAACCATACAACATTCTTCAGCATCATGAATCAGCGGAGTCACCTAGTGCAG	3230 fluorescence intensity (a.u.)
ACGGCTGTACGTCCTGCGTGTCCTCTTCTTGGGCGGCGGCCGGAGTCACCTAGTGCAG	4120 fluorescence intensity (a.u.)
ACAAAGATGCTGCTAAAAGTGTCAGCACCGATTTCAGTCGCGGAGTCACCTAGTGCAG	3360 fluorescence intensity (a.u.)

Sequence	binding signal
ATTGTTATTAGTGTACGGTGACATAATATCTAGTCACAACCGGAGTCACCTAGTGCAG	6600 fluorescence intensity (a.u.)
CCAACCCATCTCCACCGTCCATCTCCATCCGACGCCTCCCCGGAGTCACCTAGTGCAG	24300 fluorescence intensity (a.u.)
TGCTGACAAGTGGGACCCACAAGTTGACTCAGCTGCCATGCGGAGTCACCTAGTGCAG	7210 fluorescence intensity (a.u.)
CTTCAGGTGGTAGGACGCGCGGACTATAGGTAACGTGGCGCGGAGTCACCTAGTGCAG	3360 fluorescence intensity (a.u.)
TCAGCCGATCCGCGACATTCCTGTCCGGGTGAGTCCAACCCGGAGTCACCTAGTGCAG	3530 fluorescence intensity (a.u.)
AAACATCACAGTACAGCGCGTTGCCACGTCCCGCTTACTGCGGAGTCACCTAGTGCAG	9170 fluorescence intensity (a.u.)
GATTAGGGCTGCTAAAATCGTTTAGATGTTGACAGCACGGCGGAGTCACCTAGTGCAG	3860 fluorescence intensity (a.u.)
TGGCCTATCTCTTCACACGTTGACGCGACCACGTTGACGCCGGAGTCACCTAGTGCAG	3450 fluorescence intensity (a.u.)
TAAGCTCATTGTTCATGTGACGTATACGAACATCTCAGTACGGAGTCACCTAGTGCAG	4540 fluorescence intensity (a.u.)
CAAACAGGTAACAAATTTCTATCTTTAATTTTGATATTTACGGAGTCACCTAGTGCAG	24200 fluorescence intensity (a.u.)
GATCTAATCGATGACACCAATCATGATACTCCCTACATAACGGAGTCACCTAGTGCAG	3950 fluorescence intensity (a.u.)
AGAGAGAGGCAGATGGCATGGAGAGGTGTTGCAATGTGCACGGAGTCACCTAGTGCAG	3200 fluorescence intensity (a.u.)
TATCGGGTGGAGTTGGCTAAATCTGTGCCATTCGGCATACCGGAGTCACCTAGTGCAG	3260 fluorescence intensity (a.u.)
CATCGGCCCACATCACCAGTGATGGTTGTGTCCTCCGACCCGGAGTCACCTAGTGCAG	4600 fluorescence intensity (a.u.)
GTTGTTGATGTGATTGTGTGTATTCAAGTAGAGATTGGGTCGGAGTCACCTAGTGCAG	3240 fluorescence intensity (a.u.)
CGCTGAGGCGCCCTAACGCCGCCGTCTCCGGCCGCGCGACCGGAGTCACCTAGTGCAG	13000 fluorescence intensity (a.u.)
GTTTTGTTCAACAAAGCAGCTGAGTCAGCACAGGACCCACCGGAGTCACCTAGTGCAG	15200 fluorescence intensity (a.u.)
CCACTTGATCGAGGTGGCGCCCGCCGGTGCACGTGTCCGCCGGAGTCACCTAGTGCAG	3790 fluorescence intensity (a.u.)
GGGGTGCGGGGAGACGCTGGAGGTGGAGCCGGGACTGACGCGGAGTCACCTAGTGCAG	3880 fluorescence intensity (a.u.)
TGCCGGAGTCCGTCACCGCGAACACGTCCGCCGAGGCGCACGGAGTCACCTAGTGCAG	3960 fluorescence intensity (a.u.)
GTAACGTACGACCGTTGTCATCGTAGACGCTTCCCGGATTCGGAGTCACCTAGTGCAG	45700 fluorescence intensity (a.u.)
